# Measurements from PubChem BioAssay AID1508600 (Functional Genomics Laboratory (NCATS/FGL), 2020).
# About 3,700 (7%) of roughly 53,000 sequences were called active.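 Rule for the calls: active = gene knockdowns whose robust z-score for IL-1 alpha signal is at least 2 or at most -2, so actives lie on both sides; inactive = the rest.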 This is one part of the list.
# Assay: Components of the Cytosolic LPS Sensing Pathway: Gene Identification via Genome-wide siRNA Screen;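 note: robust z of the log signal after scaling to non-targeting control siRNA wells of the plate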
# Conditions: RAW264.7 macrophages, IL-1a HTRF, actives lie on both sides, screened at 100 nM (by protocol), cells primed 5 h with Pam3CSK4 first
# How it was run: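 Knockdown: 100 nM siRNA, 48h, RAW264.7. Stimulation: Pam3CSK4 5 h, then LipidA via TransIT-TKO 24 h. Output: supernatant IL-1a HTRF, negative-control-normalized, log robust z-score; viability by CellTiter-Glo.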
row,Sequence,z-score
1,GCAACAUGUAGGCAACAUCTT against Tmx2,inactive: -0.179
2,GGGCACAGGCAACAUGCUUTT against Awat2,inactive: 0.0486
3,GGAGAACACAAAGUUAUACTT against Prpf39,inactive: 0.621
4,GGCCAUAUGUCAAGAAGUUTT against Svs4,inactive: -1.24
5,GGAAAAACUCUUCUUCACGTT against Nphs1,inactive: -0.0272
6,GGGCAGAUUGACUUUUUUGTT against Rragd,inactive: 0.321
7,GGACAACACUGUCAAUCAUTT against Olfr922,active: -2.39
8,GGUUUUACAUUCUGUGUUUTT against Spata9,inactive: -0.898
9,CCGUUUAUUUAUCAGCUGGTT against Spsb4,inactive: -1.18
10,CCAGAAACACUAGUAAAGGTT against Dppa3,inactive: -0.0972
11,GGAUACAGAGUAUUUCAAGTT against Rtkn,inactive: -1.01
12,GCGAUGAGAUUGUUGCUGUTT against Ttc33,active: 2.32
13,GCCAAAGUACUCUUACAAGTT against Tfip11,inactive: -1.49
14,GGCACUAAGACCUGUUUUGTT against Msx2,inactive: 0.83
15,GGCUCUGAGUACCUGUGGATT against Olfr646,inactive: -0.234
16,GGAUCUGACAGCUCAUUUUTT against Casp7,inactive: 1.01
17,GGGAAAACACAGAAUGCUATT against Mpc1,inactive: -0.565
18,GGAUGAUAUGGAUUCACAATT against Clgn,inactive: -1.82
19,GGUGUCAACUUUAUUCUUUTT against Rab1a,inactive: 0.813
20,GGACUUGGACCAAUAGAAGTT against Tmem239,inactive: -1.29
21,CCAAAAAGAUUUGGAUCUCTT against Nr2f6,inactive: 0.142
22,GCCUGUGUGCUGUUGUGUUTT against Krtap5-1,inactive: 1.33

# Taken from the entries so far for reference:
row,Sequence,z-score
1,GCAACAUGUAGGCAACAUCTT against Tmx2,inactive: -0.179
2,GGGCACAGGCAACAUGCUUTT against Awat2,inactive: 0.0486
3,GGAGAACACAAAGUUAUACTT against Prpf39,inactive: 0.621
4,GGCCAUAUGUCAAGAAGUUTT against Svs4,inactive: -1.24
5,GGAAAAACUCUUCUUCACGTT against Nphs1,inactive: -0.0272
6,GGGCAGAUUGACUUUUUUGTT against Rragd,inactive: 0.321

# (continued)

row,Sequence,z-score
1,GGUCACCUACUGCUCAAACTT against Dnajc3,inactive: -0.649
2,CCUCGAGUGGUUGGAUAAGTT against Vps25,active: -2
3,GGUGGUGCAGGGAUUACAATT against Rsad2,inactive: 0.806
4,GCUGUAAUGCUAAUGACAUTT against Gpr22,inactive: 1.23
5,GGACCAAAGUUCUAAGUUUTT against Antxrl,inactive: 1.47
6,GAAAGAAUCUAGAAAAGUGTT against Lce1d,inactive: 0.912
7,GGUCAUCUCCUAUGGAAAUTT against Fam118b,inactive: 0.819
8,GGCUUCUAAAAAUUUCACATT against Tmprss11e,inactive: 0.221
9,GGAUUUGACAGGUUUGGAATT against Gnptab,inactive: 0.185
10,CGAGGAUUACAGAGGAAACTT against Dut,inactive: 0.717
11,GGCCCAAUCUCAAGAGGAUTT against Tnfaip8l3,inactive: 0.285
12,GGAAAAGGUGACCUGUCUCTT against Slc44a1,inactive: -1.77
13,GGGUAUGCAGAAGGGAACATT against Nrap,inactive: 0.424
14,GGAAGAAGCCACAAUCAACTT against 1110032A03Rik,inactive: 1.79
15,GCUUGUUAACCGACUAUAUTT against Fez2,inactive: -1.36
16,GGAUUUUCAAUGCUGUAUGTT against Prkag2,inactive: -0.11
17,GGGACAAGGCCUCGAUAUUTT against Ggps1,inactive: 0.958
18,GAUUGGAGUGAAGAAACGUTT against Fkbp2,inactive: -1.28
19,GGCUAUGGCUGAUAAGCAUTT against Gtsf2,inactive: 0.407
20,GGUACAGUUAUUGAAGUGATT against Nsa2,inactive: -1.06
21,GCCACAACAACUUGAGCAGTT against Amigo1,active: 2.36
22,GGCUUUAAGGUGUUUUUCATT against Slc25a48,inactive: -0.0754

row,Sequence,z-score
1,CGACCACAGCAUAUAUGUUTT against Mapkbp1,inactive: 0.635
2,GGGUGCAUAAGCAAGCUGUTT against Nkiras2,inactive: -0.992
3,CCAGCGUGAUAGCUAAGAATT against Trmt2b,inactive: 1.97
4,CCACUUUGACAGGAGGAAGTT against Actn2,inactive: 0.721
5,GAUCAAAAGCCUUCAACACTT against Olfr910,inactive: -1.3
6,CCUCUGUGUUAUUUUGCAUTT against Pgm1,inactive: 0.578
7,CCCAUAUGAGCUGAAAGCUTT against Il1b,inactive: -0.878
8,GGUUUUGCAUUUCGGAGAATT against Ccdc59,inactive: -0.223
9,CCUAAUAGUGCCUAUGAUUTT against Smc2,inactive: -0.559
10,GGCAUUGGAUCUUCAUUUUTT against Slc18a1,active: 2.35
11,GCCUAACUAGCAAUAAAAGTT against Khdc4,inactive: -0.369
12,GGAAGGAUUUAUCUUAGUUTT against C4bp,inactive: -0.192
13,GGAUCCUAAACACUUCAAGTT against Pitpnc1,inactive: 0.612
14,GCAGCGGCUUUACAAGGAUTT against Elob,inactive: -0.233
15,GGACUGUUUGAACAUCUGGTT against Tomm7,inactive: -0.318
16,GGGCUUGAAAUUGAAAUGUTT against Ccl9,inactive: -1.09
17,GGAUUGACAAAUAGCUUGUTT against B430209F14Rik,inactive: 0.969
18,GCAAUUAGACAGCAUUCAUTT against Il16,inactive: 0.491
19,GGUUCUAAACCUAGCUUUUTT against Fryl,inactive: 0.539
20,GGACAAGAAUCCUUGAGUGTT against Nxt1,inactive: -0.909
21,GGGAAUACGGAACCUUCUUTT against Olfr683,active: 2.04
22,GGAUGAGUUUGAACUAUCCTT against Kcnip2,inactive: -1.26

# 2 entries from above, with bars between the fields:
row | Sequence | z-score
17 | GGGAAAACACAGAAUGCUATT against Mpc1 | inactive: -0.565
15 | GGACUGUUUGAACAUCUGGTT against Tomm7 | inactive: -0.318

# The results go on:

row,Sequence,z-score
1,GGCAAAACCCAUUUAUGGUTT against Mprip,inactive: -0.356
2,UAUUACAAUGAUCACUGGCTT against Id1,inactive: 0.435
3,GGAGCAAUGUCAUCAGCACTT against Adgra2,inactive: -0.645
4,CCUAAAAGCUCAUAGAUUCTT against Cidec,inactive: -0.376
5,GGAGCUAACUAACGAGAUGTT against T,inactive: -0.579
6,GCUAAACAGACAACUCAACTT against Rufy2,inactive: 1.04
7,GGAUUUGUCAUCCACUUCUTT against Sez6,inactive: -1.79
8,GGUACAAACAAGAUGUGGATT against Smc5,inactive: 0.515
9,UGGCAAGAUUGAAACCAUATT against Hnrnpa3,inactive: -1.61
10,GGACCCAGCUCCUGUACAUTT against Ypel3,active: 2.31
11,GGUAUUGUGAAACGUACACTT against Ky,inactive: 0.914
12,GGAGUAUCAUUUCAUCUCATT against Mpp1,inactive: 0.798
13,CCGUUGUAAUAACAUUGGCTT against Lipg,inactive: 0.74
14,GGCCUACCUGGUUGAGAAATT against Spam1,inactive: 1.44
15,GGAACUCACACAGAACCAATT against Bloc1s6,active: 6.84
16,GGACAUCUAACAAAGCUCUTT against Mdn1,inactive: -0.592
17,GCCAGUAAACGGAGCUACCTT against Nmt1,inactive: 0.573
18,GGAGUGUGACUCUCAGAAATT against Adar,inactive: -0.653
19,GGAAAUGUGUGUUUCUUGCTT against Slco1a6,inactive: 0.722
20,GACUGAACAUAGCCUUCACTT against Olfr677,inactive: 1
21,GGUGCUAUGGCUGUGCAUATT against Doxl2,inactive: -0.302
22,GGAGAUCAAAUGGAUCGGCTT against Tfdp1,inactive: -0.234

row,Sequence,z-score
1,GGUAUUUUGACAGAGUCGATT against Add1,inactive: -1.24
2,GGAGCUGAGGAAUUGAUCCTT against Pudp,inactive: -1.97
3,CGAAUCAGUAGAUUUGACATT against Ppp1r9a,inactive: -1.22
4,GGCCUGGUCUUAGAAAUAGTT against Dock3,inactive: -0.986
5,GGACAUUUGAUAUUGAAGATT against B3gnt2,inactive: -1.88
6,GGAAAGAACUGAGUUCUCGTT against Ddx19a,inactive: -0.912
7,GGCACCAGAUGUUUGUAGCTT against Fam107a,inactive: -1.11
8,CGUGUGUCCGAAACAGCUATT against Cog8,inactive: 0.0633
9,GGUAUCUAUGGAGGUUAUUTT against Glmp,inactive: 1.83
10,GGGACAACGCACUCCAACATT against 1810024B03Rik,inactive: 0.904
11,GGUGGACUCCAGAGUUUAUTT against Polr2h,inactive: -1.2
12,AGGUUAUUAACAGAUCUCUTT against Olfr1112,inactive: -0.401
13,GGAACAUUGUCUUAAGCAATT against Echdc3,inactive: -0.164
14,GCAGAGAGUUUUUAUCUGCTT against Vmp1,inactive: 0.0579
15,GGAAGUUAAUGGGUAAAGUTT against Olfr365,inactive: -1.67
16,GGAUAUGGAGAGUCAUGUGTT against Med15,inactive: -1.06
17,GGCUGACUCUUAGAAAGGGTT against Siah1a,inactive: -0.0635
18,GGCAGGUGAACAUCACAGUTT against Hacd3,inactive: 0.62
19,GGACAUUGUUUACAAGCUGTT against Pcgf3,inactive: 1.67
